PubChem BioAssay AID720505, Drosophila RNAi Screening Center | 2013

- Purpose: 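Genes needed for store-operated calcium entry in fly cells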 (primary screen)
- Cells: Drosophila S2R+ cells
- Reagents: long dsRNA against Drosophila genes
- Conditions: thapsigargin (2 µM) in calcium-free buffer to empty internal stores, then 2 mM calcium added back
- Measured: 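Stores emptied by 2 µM thapsigargin without calcium, then 2 mM calcium re-added; fluo-4 fluorescence followed by FLIPR in 384-well plates, per-well averaged endpoint, raw; two screen passes, some wells retested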
- Scale: calcium signal: higher = more calcium entry after store depletion
- Call rule: 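Knock-downs counted as hits when calcium entry dropped relative to STIM1 positive and Rho1 negative controls present on each plate; roughly 1500 genes called, with reductions of differing size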
- Meaning of the calls: active = called as lowering calcium entry; inactive = not called
The deposit covers about 20,000 reagents; this is a random part of those with a known target gene and a result. In the full data, about 2,100 (10%) got an active call. 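Raw plate signals without normalisation; calls rest on control-based scores that were not deposited; replicate 2 separates called from uncalled poorly.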 Names joined by + are all predicted targets of the reagent. The record does not give: the amount of reagent, the time to read-out.

CG14710 (GeneID 41393) [SID104194725]: calcium signal, replicate 1 = 128; calcium signal, replicate 2 = 110; activity call = inactive
CG18131 (GeneID 33331) [SID104180309]: calcium signal, replicate 1 = 153; calcium signal, replicate 2 = 134; activity call = inactive
CG18131 (GeneID 33331) [SID104202340]: calcium signal, replicate 1 = 125; calcium signal, replicate 2 = 122; activity call = inactive
CG13694 (GeneID 33169) [SID104180155]: calcium signal, replicate 1 = 171; calcium signal, replicate 2 = 98.2; activity call = inactive
Tusp (GeneID 43317) [SID104195630]: calcium signal, replicate 1 = 86.2; calcium signal, replicate 2 = 79.8; activity call = inactive
CG31102 (GeneID 326118) [SID104194052]: calcium signal, replicate 1 = 250; calcium signal, replicate 2 = 106; activity call = inactive
SCAR (GeneID 34519) [SID104183218]: calcium signal, replicate 1 = 139; calcium signal, replicate 2 = 168; activity call = inactive
not (GeneID 40030) [SID104191170]: calcium signal, replicate 1 = 99.2; calcium signal, replicate 2 = 127; activity call = inactive
Spt3 (GeneID 41461) [SID104195257]: calcium signal, replicate 1 = 224; calcium signal, replicate 2 = 73.6; activity call = inactive
SdhAL (GeneID 39348) [SID104190331]: calcium signal, replicate 1 = 59.2; calcium signal, replicate 2 = 117; activity call = active
CG18088 (GeneID 34219) [SID104182446]: calcium signal, replicate 1 = 89.1; calcium signal, replicate 2 = 106; activity call = inactive
CR32511 (GeneID 12798210) [SID104200489]: calcium signal, replicate 1 = 127; calcium signal, replicate 2 = 133; activity call = inactive
CG17129 (GeneID 38080) [SID104188300]: calcium signal, replicate 1 = 53.9; calcium signal, replicate 2 = 130; activity call = active
Gapvd1 (GeneID 32070) [SID104199544]: calcium signal, replicate 1 = 57.5; calcium signal, replicate 2 = 122; activity call = active
Yip1d1 (GeneID 34696) [SID104181958]: calcium signal, replicate 1 = 106; calcium signal, replicate 2 = 150; activity call = inactive
CG1750 (GeneID 43699) [SID104195032]: calcium signal, replicate 1 = 44.4; calcium signal, replicate 2 = 73.8; activity call = active
CG18547 (GeneID 41452) [SID104195137]: calcium signal, replicate 1 = 68.2; calcium signal, replicate 2 = 191; activity call = active
CG33502 + CG32857 + CG32500 [SID104200609]: calcium signal, replicate 1 = 84.8; calcium signal, replicate 2 = 9020; activity call = inactive
CG33502 + CG32857 + CG32500 [SID104200830]: calcium signal, replicate 1 = 98.3; calcium signal, replicate 2 = 116; activity call = inactive

No new results follow: 2 of the entries above.
CR32511 (GeneID 12798210) [SID104200489]: calcium signal, replicate 1 = 127; calcium signal, replicate 2 = 133; activity call = inactive
CG17129 (GeneID 38080) [SID104188300]: calcium signal, replicate 1 = 53.9; calcium signal, replicate 2 = 130; activity call = active
